Experimental data: PMC7026659
Where a chain is given by its changes, count along the chain named. Results are given in words; binding and its absence hold for the method and conditions named. Binding seen in cells or lysates may run through a third protein. Some binding calls cover weakened binding; strength is not graded here. Tags and fused reporters may be left off the sequences shown.

How the values were obtained:
GFP-RAD52-K141A (human) = molecular target: T1, GFP-RAD52-K141A (human) (UniProt P43351); assay: co-IP; anti-GFP immunoprecipitation (anti-GFP monoclonal antibody and protein G-Sepharose, 4°C overnight) of GFP-RAD52 from lysates of Flp-in TREX KR-TRF1 293 cells; KR-TRF1 induced with tetracycline 2 μg/ml for 24 h; cells exposed to light for 1 h and recovered for 3 h; POLD3 found by western blot
T1 sequence: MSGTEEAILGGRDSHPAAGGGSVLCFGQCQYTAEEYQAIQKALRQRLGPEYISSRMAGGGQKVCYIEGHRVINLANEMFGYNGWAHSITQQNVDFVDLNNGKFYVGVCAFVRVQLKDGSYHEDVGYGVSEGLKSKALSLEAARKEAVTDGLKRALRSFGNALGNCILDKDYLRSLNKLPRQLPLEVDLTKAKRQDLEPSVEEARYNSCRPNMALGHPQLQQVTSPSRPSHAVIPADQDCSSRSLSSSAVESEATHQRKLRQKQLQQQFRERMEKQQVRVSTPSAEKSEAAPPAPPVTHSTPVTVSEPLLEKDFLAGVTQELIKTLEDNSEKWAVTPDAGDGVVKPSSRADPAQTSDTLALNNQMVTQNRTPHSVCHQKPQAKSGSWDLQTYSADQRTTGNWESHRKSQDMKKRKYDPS

GFP-RAD52 WT (human) [1] = molecular target: T2, GFP-RAD52 WT (human) (UniProt P43351); assay: as above
T2 sequence: T1 sequence with A141K

GFP-RAD52-K144A (human) = molecular target: T3, GFP-RAD52-K144A (human) (UniProt P43351); assay: as above
T3 sequence: T1 sequence with A141K, K144A

GFP-RAD52 WT (human) [2] = molecular target: T2, GFP-RAD52 WT (human); assay: co-IP; as a1, with cell lysates treated with ethidium bromide (0.1 mg/ml) for 30 min

Measured: binding

B1: POLD3 (protein, UniProt Q15054 1-466)
chain: MADQLYLENIDEFVTDQNKIVTYKWLSYTLGVHVNQAKQMLYDYVERKRKENSGAQLHVTYLVSGSLIQNGHSCHKVAVVREDKLEAVKSKLAVTASIHVYSIQKAMLKDSGPLFNTDYDILKSNLQNCSKFSAIQCAAAVPRAPAESSSSSKKFEQSHLHMSSETQANNELTTNGHGPPASKQVSQQPKGIMGMFASKAAAKTQETNKETKTEAKEVTNASAAGNKAPGKGNMMSNFFGKAAMNKFKVNLDSEQAVKEEKIVEQPTVSVTEPKLATPAGLKKSSKKAEPVKVLQKEKKRGKRVALSDDETKETENMRKKRRRIKLPESDSSEDEVFPDSPGAYEAESPSPPPPPSPPLEPVPKTEPEPPSVKSSSGENKRKRKRVLKSKTYLDGEGCIVTEKVYESESCTDSEEELNMKTSSVHRPPAMTVKKEPREERKGPKKGTAALGKANRQVSITGFFQRK
binds: all assays above
